These results are taken from the supplement of paper PMC9233669.

Variants at the floor of the assay are shown more often than the library holds them.

One data set deals with biotinyl-Trp-oxazolone. The data set is described as follows: self-aminoacylation, catalytic enhancement (BWO) (fold over background); higher = more active; k-Seq, kA / k0A0; sequences stand for … in GGGAAUGGAUCCACAUCUACGAAUUC…UUCACUGCAGACUUGACGAAGCUG
The method, boiled down:
(§1)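 Catalytic enhancement equals the median kA over the uncatalyzed rate, the latter read from the low-activity peak of a bimodal Gaussian fit. Values of kA came from fitting each sequence's fraction reacted to a pseudo-first-order model, with 1000 bootstraps. Reacted RNA was captured with streptavidin and quantified by triplicate qPCR and Illumina sequencing after 90 minutes at room temperature with 2–1250 μM biotinyl-aminoacyl-oxazolone and 0.43 μM mutagenized RNA pools bearing a 21-nt variable region.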

The test system of a further data set is biotinyl-Leu-oxazolone. The data set is described as follows: self-aminoacylation, catalytic enhancement (BLO) (fold over background); higher = more active; k-Seq, kA / k0A0; sequences stand for … in GGGAAUGGAUCCACAUCUACGAAUUC…UUCACUGCAGACUUGACGAAGCUG
The method, boiled down: as §1

The next data set relates to biotinyl-Val-oxazolone. The data set is described as follows: self-aminoacylation, catalytic enhancement (BVO) (fold over background); higher = more active; k-Seq, kA / k0A0; sequences stand for … in GGGAAUGGAUCCACAUCUACGAAUUC…UUCACUGCAGACUUGACGAAGCUG
The method, boiled down:
as §1

A further data set relates to biotinyl-Ile-oxazolone. The data set is described as follows: self-aminoacylation, catalytic enhancement (BIO) (fold over background); higher = more active; k-Seq, kA / k0A0; sequences stand for … in GGGAAUGGAUCCACAUCUACGAAUUC…UUCACUGCAGACUUGACGAAGCUG
The method, boiled down: as §1

Another data set concerns biotinyl-Met-oxazolone. The data set is described as follows: self-aminoacylation, catalytic enhancement (BMO) (fold over background); higher = more active; k-Seq, kA / k0A0; sequences stand for … in GGGAAUGGAUCCACAUCUACGAAUUC…UUCACUGCAGACUUGACGAAGCUG
The method, boiled down: as §1

A further data set concerns biotinyl-Phe-oxazolone. As to the kind of experiment: self-aminoacylation, catalytic enhancement (BFO) (fold over background); higher = more active; k-Seq, kA / k0A0; sequences stand for … in GGGAAUGGAUCCACAUCUACGAAUUC…UUCACUGCAGACUUGACGAAGCUG
The method, boiled down:
as §1

“CCACACUUUAAGCAAUCGGUC [Fam1B.1 aminoacylation ribozyme variant]”: the self-aminoacylation with biotinyl-Trp-oxazolone was 0.728; with biotinyl-Leu-oxazolone, 0.697; in the data set on biotinyl-Val-oxazolone it was 0.911; in the data set with biotinyl-Ile-oxazolone it was 0.863; with biotinyl-Met-oxazolone, 0.678; in the data set on biotinyl-Phe-oxazolone, 1.18.

As to “CCACACUUCAAGCAAUUGCUC [Fam1B.1 aminoacylation ribozyme variant]”, the self-aminoacylation stood at 0.936 with biotinyl-Trp-oxazolone; 0.966 in the data set with biotinyl-Leu-oxazolone; 1.06 in the data set on biotinyl-Val-oxazolone; 0.938 in the data set on biotinyl-Ile-oxazolone; 0.87 in the data set with biotinyl-Met-oxazolone; 0.673 with biotinyl-Phe-oxazolone.

“AAGUUUGGUAAUAGUCGAAAG [Fam3.1 aminoacylation ribozyme variant]”: the self-aminoacylation in the data set on biotinyl-Trp-oxazolone stood at 0.952; in the data set with biotinyl-Leu-oxazolone, 0.79; with biotinyl-Val-oxazolone, 0.969; in the data set with biotinyl-Ile-oxazolone it was 0.898; with biotinyl-Met-oxazolone, 0.881; in the data set with biotinyl-Phe-oxazolone it was 1.65.

For the sequence “AAGUUUGCUAAUAGUAGCCAG [Fam3.1 aminoacylation ribozyme variant]”, the self-aminoacylation worked out at 2.24 in the data set with biotinyl-Trp-oxazolone; 0.78 in the data set on biotinyl-Leu-oxazolone; 0.769 in the data set on biotinyl-Val-oxazolone; 0.868 in the data set with biotinyl-Ile-oxazolone; 0.77 in the data set with biotinyl-Met-oxazolone; 1.04 with biotinyl-Phe-oxazolone.

For the sequence “CUACUUCAUACCAUCGGUCUG [Fam1A.1 aminoacylation ribozyme variant]”, the self-aminoacylation in the data set on biotinyl-Trp-oxazolone came to 0.473; in the data set with biotinyl-Leu-oxazolone, 0.534; in the data set on biotinyl-Val-oxazolone it was 0.775; in the data set with biotinyl-Ile-oxazolone it was 0.861; with biotinyl-Met-oxazolone it was 0.651; with biotinyl-Phe-oxazolone, 0.796.

Regarding “CCACACUUCAAGCCAUCGAUC [Fam1B.1 aminoacylation ribozyme variant]”, the self-aminoacylation with biotinyl-Trp-oxazolone was determined as 0.6; in the data set with biotinyl-Leu-oxazolone it was 0.56; in the data set with biotinyl-Val-oxazolone it was 0.639; in the data set on biotinyl-Ile-oxazolone, 0.704; in the data set with biotinyl-Met-oxazolone it was 0.442; in the data set with biotinyl-Phe-oxazolone, 1.08.

As for “AAGUUUGCUUAUAGACGCAAG [Fam3.1 aminoacylation ribozyme variant]”, the self-aminoacylation was 0.629 with biotinyl-Trp-oxazolone; 0.495 in the data set with biotinyl-Leu-oxazolone; 0.585 with biotinyl-Val-oxazolone; 0.591 in the data set with biotinyl-Ile-oxazolone; 0.559 in the data set with biotinyl-Met-oxazolone; 0.84 with biotinyl-Phe-oxazolone.

Consider “AUUUACCUAGGUCAUCGGGAG [Fam2.2 aminoacylation ribozyme variant]”, for which the self-aminoacylation in the data set on biotinyl-Trp-oxazolone came out at 0.947; in the data set on biotinyl-Leu-oxazolone, 1.39; in the data set with biotinyl-Val-oxazolone, 1.29; in the data set on biotinyl-Ile-oxazolone it was 1.15; with biotinyl-Met-oxazolone it was 1.11; in the data set on biotinyl-Phe-oxazolone, 0.695.

As for “CUUCUUCAAACAAUCGGUCUC [Fam1A.1 aminoacylation ribozyme variant]”, the self-aminoacylation in the data set with biotinyl-Trp-oxazolone is 13.6; in the data set on biotinyl-Leu-oxazolone it was 1.08; in the data set with biotinyl-Val-oxazolone, 0.874; in the data set on biotinyl-Ile-oxazolone, 0.814; in the data set with biotinyl-Met-oxazolone, 0.773; in the data set with biotinyl-Phe-oxazolone it was 28.6.

On to “AAGGUUGCUAAUAGUAGCAAG [Fam3.1 aminoacylation ribozyme variant]”, for which the self-aminoacylation worked out at 1.3 in the data set on biotinyl-Trp-oxazolone; 1.08 in the data set on biotinyl-Leu-oxazolone; 0.93 in the data set on biotinyl-Val-oxazolone; 1.31 in the data set on biotinyl-Ile-oxazolone; 1.4 in the data set with biotinyl-Met-oxazolone; 1.57 in the data set with biotinyl-Phe-oxazolone.

With “CUACUUUAAACUAUCGGUCUG [Fam1A.1 aminoacylation ribozyme variant]”, the self-aminoacylation was 0.945 with biotinyl-Trp-oxazolone; 1.02 with biotinyl-Leu-oxazolone; 1.04 in the data set with biotinyl-Val-oxazolone; 0.996 in the data set with biotinyl-Ile-oxazolone; 0.959 in the data set on biotinyl-Met-oxazolone; 0.744 in the data set with biotinyl-Phe-oxazolone.

Consider “AUACACCUAGGUCAUCAGGUG [Fam2.2 aminoacylation ribozyme variant]”, for which the self-aminoacylation was 1.59 with biotinyl-Trp-oxazolone; 1.02 in the data set on biotinyl-Leu-oxazolone; 1.32 in the data set on biotinyl-Val-oxazolone; 1.19 with biotinyl-Ile-oxazolone; 1.12 with biotinyl-Met-oxazolone; 1.39 in the data set on biotinyl-Phe-oxazolone.

In the case of “GCACACUCCAAGCAAUCGGUC [Fam1B.1 aminoacylation ribozyme variant]”, the self-aminoacylation in the data set with biotinyl-Trp-oxazolone was 2.53; in the data set on biotinyl-Leu-oxazolone it was 1.48; in the data set with biotinyl-Val-oxazolone, 1.55; in the data set with biotinyl-Ile-oxazolone it was 1.36; with biotinyl-Met-oxazolone, 1.31; with biotinyl-Phe-oxazolone, 2.35.

As to “AAGUUUGCCAAUAGUGGCAAG [Fam3.1 aminoacylation ribozyme variant]”, the self-aminoacylation with biotinyl-Trp-oxazolone was 0.868; with biotinyl-Leu-oxazolone, 0.722; in the data set on biotinyl-Val-oxazolone, 0.615; with biotinyl-Ile-oxazolone it was 0.707; in the data set on biotinyl-Met-oxazolone it was 0.739; in the data set on biotinyl-Phe-oxazolone it was 0.933.

As to “AUUACCCGGGUCCUCGAGUGA [Fam2.1 aminoacylation ribozyme variant]”, the self-aminoacylation with biotinyl-Trp-oxazolone was determined as 7.11; in the data set with biotinyl-Leu-oxazolone it was 7.78; with biotinyl-Val-oxazolone, 3.84; in the data set with biotinyl-Ile-oxazolone, 3.5; in the data set on biotinyl-Met-oxazolone, 5.42; with biotinyl-Phe-oxazolone it was 47.4.

With “AUGCACCUAGGUCAUCAGGUG [Fam2.2 aminoacylation ribozyme variant]”, the self-aminoacylation with biotinyl-Trp-oxazolone is 1.19; in the data set with biotinyl-Leu-oxazolone, 1.57; in the data set with biotinyl-Val-oxazolone it was 1.49; in the data set with biotinyl-Ile-oxazolone, 1.13; with biotinyl-Met-oxazolone it was 1.39; in the data set on biotinyl-Phe-oxazolone, 1.15.

In the case of “AUUUCCCUGGUCAUCGAGUUA [Fam2.1 aminoacylation ribozyme variant]”, the self-aminoacylation in the data set with biotinyl-Trp-oxazolone came out at 1.47; with biotinyl-Leu-oxazolone, 1.87; in the data set with biotinyl-Val-oxazolone, 1.53; in the data set on biotinyl-Ile-oxazolone, 1.49; in the data set with biotinyl-Met-oxazolone, 1.63; in the data set on biotinyl-Phe-oxazolone, 2.12.

With “CUACUUCAAUCAAGCGGUCUG [Fam1A.1 aminoacylation ribozyme variant]”, the self-aminoacylation in the data set on biotinyl-Trp-oxazolone came out at 0.579; with biotinyl-Leu-oxazolone, 0.716; with biotinyl-Val-oxazolone it was 0.802; in the data set with biotinyl-Ile-oxazolone, 0.818; in the data set on biotinyl-Met-oxazolone, 0.875; with biotinyl-Phe-oxazolone, 0.561.

Regarding “ACGUUUGCUAAUAAUCGCAAG [Fam3.1 aminoacylation ribozyme variant]”, the self-aminoacylation in the data set with biotinyl-Trp-oxazolone is 0.805; in the data set on biotinyl-Leu-oxazolone, 1.4; in the data set with biotinyl-Val-oxazolone, 1.1; with biotinyl-Ile-oxazolone it was 1.4; in the data set on biotinyl-Met-oxazolone, 1.24; in the data set with biotinyl-Phe-oxazolone, 1.96.

Regarding “CUACUUCUAACAAUCGGUCUG [Fam1A.1 aminoacylation ribozyme variant]”, the self-aminoacylation is 0.532 in the data set with biotinyl-Trp-oxazolone; 0.585 in the data set with biotinyl-Leu-oxazolone; 0.693 with biotinyl-Val-oxazolone; 0.658 in the data set on biotinyl-Ile-oxazolone; 0.608 in the data set with biotinyl-Met-oxazolone; 0.785 with biotinyl-Phe-oxazolone.

“CCACACUCCAAGCAAUCUGUC [Fam1B.1 aminoacylation ribozyme variant]”: the self-aminoacylation in the data set on biotinyl-Trp-oxazolone came out at 0.384; in the data set with biotinyl-Leu-oxazolone it was 0.44; in the data set on biotinyl-Val-oxazolone, 0.749; in the data set on biotinyl-Ile-oxazolone, 0.617; in the data set on biotinyl-Met-oxazolone it was 0.426; in the data set on biotinyl-Phe-oxazolone it was 0.541.

Regarding “AUUACCCUGGUCAUUGAGUAA [Fam2.1 aminoacylation ribozyme variant]”, the self-aminoacylation with biotinyl-Trp-oxazolone turned out to be 2.02; in the data set on biotinyl-Leu-oxazolone it was 1.29; with biotinyl-Val-oxazolone it was 0.941; in the data set on biotinyl-Ile-oxazolone, 1.2; in the data set on biotinyl-Met-oxazolone, 1.21; with biotinyl-Phe-oxazolone, 1.16.

Take “CCACACUUCAAGCAAGCGCUC [Fam1B.1 aminoacylation ribozyme variant]”: the self-aminoacylation in the data set on biotinyl-Trp-oxazolone stood at 0.756; in the data set with biotinyl-Leu-oxazolone it was 1.1; in the data set with biotinyl-Val-oxazolone, 1.3; with biotinyl-Ile-oxazolone, 0.976; in the data set on biotinyl-Met-oxazolone it was 0.744; in the data set on biotinyl-Phe-oxazolone, 0.847.

With “AAGUAUGCUAAUAGUCGCAUG [Fam3.1 aminoacylation ribozyme variant]”, the self-aminoacylation in the data set on biotinyl-Trp-oxazolone turned out to be 1.84; with biotinyl-Leu-oxazolone, 1.55; with biotinyl-Val-oxazolone, 1.09; in the data set on biotinyl-Ile-oxazolone it was 1.34; in the data set on biotinyl-Met-oxazolone it was 1.45; with biotinyl-Phe-oxazolone, 1.66.

In the case of “CUACUUCCAACAAUCGGCCUG [Fam1A.1 aminoacylation ribozyme variant]”, the self-aminoacylation in the data set with biotinyl-Trp-oxazolone worked out at 1.46; with biotinyl-Leu-oxazolone it was 1.27; in the data set with biotinyl-Val-oxazolone, 1.5; in the data set on biotinyl-Ile-oxazolone, 1.64; in the data set on biotinyl-Met-oxazolone, 1.48; in the data set on biotinyl-Phe-oxazolone, 0.988.
